Data set [1] deals with MCF-7 human breast adenocarcinoma cells (hormone-dependent). Nature of the data set: SRB antiproliferative assay, MCF-7. In kind it is cell-based. Particulars: ratio normal to cancer cells. Here is the method: (§1) Stock solutions of compounds 1a–5a and 1–5 (0.01 M) in DMSO were freshly prepared and subsequently diluted with cell culture media to appropriate concentrations for various biological experiments. These included the assessment of cell viability using the SRB assay, micronucleus testing, cell morphology studies, cell cycle arrest, AO/EB staining, and mitochondrial membrane permeabilization tests. For CT-DNA binding studies, experiments were conducted in DMSO/buffer solutions. All biological experiments were performed in triplicate or more.
(§2) Stock solutions of 1a–5a and 1–5 (0.01 M) were dissolved in DMSO and subsequently diluted with cell culture medium to the desired concentrations (0.5–30 μM). MCF-7, MDA MB-231, and MRC-5 cells were plated in 96-well flat-bottom microplates at various densities: 6000, 8000, and 2000 cells per well, respectively. The cells were incubated for 24 h at 37 °C and then exposed to 1a–5a and 1–5 for 48 h. ,–
(§3) Cytotoxicity was evaluated using the SRB colorimetric assay at λ = 568 nm, with cell survival percentages calculated relative to the untreated control cells. Detailed information on the SRB assay procedure can be found in the previous publication. ,–
(In general: The SRB assay estimates cell density from bound dye.)

The subject of data set [2] is MDA-MB-231 human breast adenocarcinoma cells (hormone-independent). Nature of the data set: SRB antiproliferative assay, MDA-MB-231. In kind it is cell-based. The note with it: ratio normal to cancer cells. The procedure:
as §1, §2, §3

For `N.N.[Cl][Pt][Cl]` [cisplatin], in data set [1], the “TPI (Therapeutic Potency Index) = IC50 MRC-5/IC50 MCF-7” value was 0.2 and the “TPI = IC50 MCF-10A/IC50 MCF-7” value worked out at 2.0. Also, in data set [2], the “TPI = IC50 MCF-10A/IC50 MDA-MB-231” value worked out at 0.4 and the “TPI = IC50 MRC-5/IC50 MDA-MB-231” value is reported as 0.04.

Take `c1ccc(-c2nnc([S][Ag]([PH](c3ccccc3)(c3ccccc3)c3ccccc3)([PH](c3ccccc3)(c3ccccc3)c3ccccc3)[PH](c3ccccc3)(c3ccccc3)c3ccccc3)o2)cc1` [compound 1]: in data set [1], the “TPI (Therapeutic Potency Index) = IC50 MRC-5/IC50 MCF-7” value is reported as 1.9 and the “TPI = IC50 MCF-10A/IC50 MCF-7” value is 5.2. In data set [2], the “TPI = IC50 MCF-10A/IC50 MDA-MB-231” value is 2.6 and the “TPI = IC50 MRC-5/IC50 MDA-MB-231” value is recorded as 0.9.

Take `Fc1ccccc1-c1nnc([S][Ag]([PH](c2ccccc2)(c2ccccc2)c2ccccc2)([PH](c2ccccc2)(c2ccccc2)c2ccccc2)[PH](c2ccccc2)(c2ccccc2)c2ccccc2)o1` [compound 2]: in data set [1], the “TPI (Therapeutic Potency Index) = IC50 MRC-5/IC50 MCF-7” value came out at 1.2 and the “TPI = IC50 MCF-10A/IC50 MCF-7” value is listed as 5.6. Moreover, in data set [2], the “TPI = IC50 MCF-10A/IC50 MDA-MB-231” value stood at 3.6 and the “TPI = IC50 MRC-5/IC50 MDA-MB-231” value was 0.8.

As to `Fc1ccc(-c2nnc([S][Ag]([PH](c3ccccc3)(c3ccccc3)c3ccccc3)([PH](c3ccccc3)(c3ccccc3)c3ccccc3)[PH](c3ccccc3)(c3ccccc3)c3ccccc3)o2)cc1` [compound 3], in data set [1], the “TPI (Therapeutic Potency Index) = IC50 MRC-5/IC50 MCF-7” value worked out at 1.3 and the “TPI = IC50 MCF-10A/IC50 MCF-7” value was 5.1. Moreover, in data set [2], the “TPI = IC50 MCF-10A/IC50 MDA-MB-231” value is listed as 4.3 and the “TPI = IC50 MRC-5/IC50 MDA-MB-231” value came to 1.1.

For the molecule `Clc1ccccc1-c1nnc([S][Ag]([PH](c2ccccc2)(c2ccccc2)c2ccccc2)([PH](c2ccccc2)(c2ccccc2)c2ccccc2)[PH](c2ccccc2)(c2ccccc2)c2ccccc2)o1` [compound 4], in data set [1], the “TPI (Therapeutic Potency Index) = IC50 MRC-5/IC50 MCF-7” value was 1.4 and the “TPI = IC50 MCF-10A/IC50 MCF-7” value worked out at 5.3. Further, in data set [2], the “TPI = IC50 MCF-10A/IC50 MDA-MB-231” value worked out at 3.7 and the “TPI = IC50 MRC-5/IC50 MDA-MB-231” value came out at 1.0.

Regarding `Clc1cccc(-c2nnc([S][Ag]([PH](c3ccccc3)(c3ccccc3)c3ccccc3)([PH](c3ccccc3)(c3ccccc3)c3ccccc3)[PH](c3ccccc3)(c3ccccc3)c3ccccc3)o2)c1` [compound 5], in data set [1], the “TPI (Therapeutic Potency Index) = IC50 MRC-5/IC50 MCF-7” value came out at 1.7 and the “TPI = IC50 MCF-10A/IC50 MCF-7” value is reported as 9.5. Further, in data set [2], the “TPI = IC50 MCF-10A/IC50 MDA-MB-231” value is given as 4.5 and the “TPI = IC50 MRC-5/IC50 MDA-MB-231” value is 0.8.

These data come from publication PMC12239085, “Silver(I) Ions Bridging Oxadiazole-2-thione Derivatives with Mitochondriotropic Agents: A Promising Strategy for Potent Anticancer Chemotherapy” (Inorganic Chemistry, 2025).
